PubChem BioAssay AID602196 – INSERM – 2012
The whole screen tested about 23,000 reagents; this is a random part of them. Of all reagents, 455 (2%) got an active call. 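Active includes both protection and sensitisation; some change values fall well beyond the stated -50 to +50 range.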 Not all columns of the deposit are shown. Not stated in the record: the amount of reagent.

Assay: 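Knock-downs that protect lung cancer cells from cisplatin or sensitise them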
Cells: human A549 lung cancer cells
Reagent: siRNA pair against human genes
Timing: 48 h transfection before cisplatin; time from cisplatin to read-out not stated
Challenge: cisplatin at a dose killing half of control-siRNA cells; exact dose and duration not given
Measured: 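Cisplatin cell death as a shift from the 50% death seen with control siRNA; siRNAs toxic or growth-blocking alone scored 0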
Scale: two-siRNA summed score (-2 to +2): higher = both siRNAs protect from cisplatin killing; -2 means both sensitise
Active means: 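siRNAs harmful alone (LDH or WST-1) get 0; others get +1 for less and -1 for more cisplatin killing; genes are active when the two siRNAs give the same sign, summing to ±2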
Meaning of the calls: active = both siRNAs shift cisplatin killing the same way; inactive = no consistent shift, or siRNA harmful alone

PAPSS2 → two-siRNA summed score (-2 to +2): 0; Outcome: inactive
ZNF789 → two-siRNA summed score (-2 to +2): 1; Outcome: inactive
ITLN1 → two-siRNA summed score (-2 to +2): 0; Outcome: inactive
YTHDF1 → two-siRNA summed score (-2 to +2): 0; Outcome: inactive
MAFG → two-siRNA summed score (-2 to +2): -1; Outcome: inactive
CSN3 → two-siRNA summed score (-2 to +2): -1; Outcome: inactive
GSDMA → two-siRNA summed score (-2 to +2): -1; Outcome: inactive
OR4C15 → two-siRNA summed score (-2 to +2): -1; Outcome: inactive
ASF1A → two-siRNA summed score (-2 to +2): 0; Outcome: inactive
ADGRF5 → two-siRNA summed score (-2 to +2): 0; Outcome: inactive
LOC401026 → two-siRNA summed score (-2 to +2): 0; Outcome: inactive
LINC00469 → two-siRNA summed score (-2 to +2): 0; Outcome: inactive

In a second layout: 2 of the entries above
Target gene | two-siRNA summed score (-2 to +2) | Outcome
YTHDF1 | 0 | inactive
MAFG | -1 | inactive
